Assay results: the supplement of paper PMC10849652
The other results are listed elsewhere or left out.

By UniProt entry, the sequences of proteins in these tests, tags left out. Where a name states a change or a piece, a line headed by the entry shows the natural chain unless it says otherwise.
UniProt Q8N4H5: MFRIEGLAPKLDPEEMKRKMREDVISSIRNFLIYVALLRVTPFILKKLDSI
UniProt Q6UW68: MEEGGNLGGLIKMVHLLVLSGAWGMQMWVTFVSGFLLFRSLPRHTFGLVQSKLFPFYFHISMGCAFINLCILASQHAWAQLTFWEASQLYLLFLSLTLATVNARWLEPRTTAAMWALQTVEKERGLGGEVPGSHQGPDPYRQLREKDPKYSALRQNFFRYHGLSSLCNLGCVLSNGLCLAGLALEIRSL
UniProt Q8IY95: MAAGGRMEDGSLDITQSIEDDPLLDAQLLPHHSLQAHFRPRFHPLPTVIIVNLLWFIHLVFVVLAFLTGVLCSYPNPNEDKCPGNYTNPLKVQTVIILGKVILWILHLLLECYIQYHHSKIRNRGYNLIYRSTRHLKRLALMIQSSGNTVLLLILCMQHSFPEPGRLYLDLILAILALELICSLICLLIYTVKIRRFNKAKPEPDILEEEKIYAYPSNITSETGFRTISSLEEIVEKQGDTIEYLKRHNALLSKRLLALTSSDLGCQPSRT
UniProt Q96K49: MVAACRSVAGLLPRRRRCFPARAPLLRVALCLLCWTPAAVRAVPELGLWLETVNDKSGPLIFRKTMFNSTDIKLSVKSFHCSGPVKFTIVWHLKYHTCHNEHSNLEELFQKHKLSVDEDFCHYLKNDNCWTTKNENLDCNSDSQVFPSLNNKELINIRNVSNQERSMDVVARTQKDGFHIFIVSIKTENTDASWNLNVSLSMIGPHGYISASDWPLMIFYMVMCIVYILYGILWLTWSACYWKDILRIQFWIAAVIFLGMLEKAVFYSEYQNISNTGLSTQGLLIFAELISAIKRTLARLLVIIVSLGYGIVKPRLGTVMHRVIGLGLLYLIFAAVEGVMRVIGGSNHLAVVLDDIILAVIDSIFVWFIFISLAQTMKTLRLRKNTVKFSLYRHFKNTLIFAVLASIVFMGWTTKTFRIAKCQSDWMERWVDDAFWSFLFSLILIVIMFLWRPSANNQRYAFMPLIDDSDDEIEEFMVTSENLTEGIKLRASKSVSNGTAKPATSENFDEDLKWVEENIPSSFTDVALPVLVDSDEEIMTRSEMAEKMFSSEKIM
UniProt P28908: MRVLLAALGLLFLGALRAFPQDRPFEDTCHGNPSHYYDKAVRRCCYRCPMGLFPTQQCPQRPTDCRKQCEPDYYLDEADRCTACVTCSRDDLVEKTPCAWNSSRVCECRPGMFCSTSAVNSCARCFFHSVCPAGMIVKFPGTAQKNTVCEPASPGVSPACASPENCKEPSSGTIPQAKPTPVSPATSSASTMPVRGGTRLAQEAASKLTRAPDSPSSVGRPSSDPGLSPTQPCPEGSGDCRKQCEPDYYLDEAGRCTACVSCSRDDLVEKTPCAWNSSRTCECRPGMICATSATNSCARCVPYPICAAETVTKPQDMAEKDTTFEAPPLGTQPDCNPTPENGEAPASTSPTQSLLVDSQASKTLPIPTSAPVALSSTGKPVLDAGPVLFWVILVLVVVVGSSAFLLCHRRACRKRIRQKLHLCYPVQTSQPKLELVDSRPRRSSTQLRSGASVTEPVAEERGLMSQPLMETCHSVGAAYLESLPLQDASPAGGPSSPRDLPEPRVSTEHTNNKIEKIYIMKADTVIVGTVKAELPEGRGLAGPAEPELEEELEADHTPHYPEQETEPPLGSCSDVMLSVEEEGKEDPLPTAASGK
UniProt Q9Y5L0: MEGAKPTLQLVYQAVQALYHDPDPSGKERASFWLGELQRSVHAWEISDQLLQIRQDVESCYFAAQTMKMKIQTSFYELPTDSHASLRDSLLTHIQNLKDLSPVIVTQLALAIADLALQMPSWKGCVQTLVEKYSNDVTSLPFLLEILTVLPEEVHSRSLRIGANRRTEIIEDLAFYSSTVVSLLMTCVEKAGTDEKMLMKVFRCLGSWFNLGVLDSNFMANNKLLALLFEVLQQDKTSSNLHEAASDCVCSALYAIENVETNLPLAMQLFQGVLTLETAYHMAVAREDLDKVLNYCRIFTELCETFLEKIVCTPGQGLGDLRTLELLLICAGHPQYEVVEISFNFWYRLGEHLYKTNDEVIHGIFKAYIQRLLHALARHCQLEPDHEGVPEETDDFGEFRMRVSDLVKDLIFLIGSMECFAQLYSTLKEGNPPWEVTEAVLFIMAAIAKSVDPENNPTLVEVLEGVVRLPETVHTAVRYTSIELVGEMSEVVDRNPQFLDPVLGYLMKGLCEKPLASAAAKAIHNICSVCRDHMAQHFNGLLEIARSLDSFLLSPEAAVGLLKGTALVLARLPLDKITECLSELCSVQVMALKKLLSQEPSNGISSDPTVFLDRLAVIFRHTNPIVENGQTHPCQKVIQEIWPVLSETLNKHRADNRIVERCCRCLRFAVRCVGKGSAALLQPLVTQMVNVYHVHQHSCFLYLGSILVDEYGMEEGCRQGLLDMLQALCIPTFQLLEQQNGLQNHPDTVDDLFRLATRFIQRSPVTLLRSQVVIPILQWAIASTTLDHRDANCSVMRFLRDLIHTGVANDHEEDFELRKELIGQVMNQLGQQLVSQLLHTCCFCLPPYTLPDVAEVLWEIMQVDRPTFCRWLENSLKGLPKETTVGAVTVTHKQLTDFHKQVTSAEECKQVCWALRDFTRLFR
UniProt Q5JTV8: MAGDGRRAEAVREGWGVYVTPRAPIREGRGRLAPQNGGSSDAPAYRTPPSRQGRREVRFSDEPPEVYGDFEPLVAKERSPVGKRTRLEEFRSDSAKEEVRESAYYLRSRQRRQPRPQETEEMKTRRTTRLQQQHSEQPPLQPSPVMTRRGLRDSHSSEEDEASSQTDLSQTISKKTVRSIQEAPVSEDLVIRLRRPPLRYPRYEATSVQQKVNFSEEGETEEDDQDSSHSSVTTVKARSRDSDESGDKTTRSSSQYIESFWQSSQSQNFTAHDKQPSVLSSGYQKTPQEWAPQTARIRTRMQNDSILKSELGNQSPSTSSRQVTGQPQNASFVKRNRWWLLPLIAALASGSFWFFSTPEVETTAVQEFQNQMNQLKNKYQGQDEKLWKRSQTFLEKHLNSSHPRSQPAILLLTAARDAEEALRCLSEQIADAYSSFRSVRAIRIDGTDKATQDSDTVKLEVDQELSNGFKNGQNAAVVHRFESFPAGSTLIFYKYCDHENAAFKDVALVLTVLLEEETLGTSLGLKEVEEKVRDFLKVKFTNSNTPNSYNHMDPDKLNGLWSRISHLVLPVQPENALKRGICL
UniProt O14656: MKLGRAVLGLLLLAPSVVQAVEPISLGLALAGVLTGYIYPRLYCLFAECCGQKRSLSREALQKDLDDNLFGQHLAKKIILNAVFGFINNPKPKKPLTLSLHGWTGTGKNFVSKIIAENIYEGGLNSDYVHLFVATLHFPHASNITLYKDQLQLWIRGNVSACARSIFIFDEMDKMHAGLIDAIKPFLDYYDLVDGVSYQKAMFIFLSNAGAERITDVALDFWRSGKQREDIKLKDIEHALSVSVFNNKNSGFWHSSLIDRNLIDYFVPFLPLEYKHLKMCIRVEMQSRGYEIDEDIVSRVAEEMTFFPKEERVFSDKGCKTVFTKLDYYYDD
UniProt Q8NDV7: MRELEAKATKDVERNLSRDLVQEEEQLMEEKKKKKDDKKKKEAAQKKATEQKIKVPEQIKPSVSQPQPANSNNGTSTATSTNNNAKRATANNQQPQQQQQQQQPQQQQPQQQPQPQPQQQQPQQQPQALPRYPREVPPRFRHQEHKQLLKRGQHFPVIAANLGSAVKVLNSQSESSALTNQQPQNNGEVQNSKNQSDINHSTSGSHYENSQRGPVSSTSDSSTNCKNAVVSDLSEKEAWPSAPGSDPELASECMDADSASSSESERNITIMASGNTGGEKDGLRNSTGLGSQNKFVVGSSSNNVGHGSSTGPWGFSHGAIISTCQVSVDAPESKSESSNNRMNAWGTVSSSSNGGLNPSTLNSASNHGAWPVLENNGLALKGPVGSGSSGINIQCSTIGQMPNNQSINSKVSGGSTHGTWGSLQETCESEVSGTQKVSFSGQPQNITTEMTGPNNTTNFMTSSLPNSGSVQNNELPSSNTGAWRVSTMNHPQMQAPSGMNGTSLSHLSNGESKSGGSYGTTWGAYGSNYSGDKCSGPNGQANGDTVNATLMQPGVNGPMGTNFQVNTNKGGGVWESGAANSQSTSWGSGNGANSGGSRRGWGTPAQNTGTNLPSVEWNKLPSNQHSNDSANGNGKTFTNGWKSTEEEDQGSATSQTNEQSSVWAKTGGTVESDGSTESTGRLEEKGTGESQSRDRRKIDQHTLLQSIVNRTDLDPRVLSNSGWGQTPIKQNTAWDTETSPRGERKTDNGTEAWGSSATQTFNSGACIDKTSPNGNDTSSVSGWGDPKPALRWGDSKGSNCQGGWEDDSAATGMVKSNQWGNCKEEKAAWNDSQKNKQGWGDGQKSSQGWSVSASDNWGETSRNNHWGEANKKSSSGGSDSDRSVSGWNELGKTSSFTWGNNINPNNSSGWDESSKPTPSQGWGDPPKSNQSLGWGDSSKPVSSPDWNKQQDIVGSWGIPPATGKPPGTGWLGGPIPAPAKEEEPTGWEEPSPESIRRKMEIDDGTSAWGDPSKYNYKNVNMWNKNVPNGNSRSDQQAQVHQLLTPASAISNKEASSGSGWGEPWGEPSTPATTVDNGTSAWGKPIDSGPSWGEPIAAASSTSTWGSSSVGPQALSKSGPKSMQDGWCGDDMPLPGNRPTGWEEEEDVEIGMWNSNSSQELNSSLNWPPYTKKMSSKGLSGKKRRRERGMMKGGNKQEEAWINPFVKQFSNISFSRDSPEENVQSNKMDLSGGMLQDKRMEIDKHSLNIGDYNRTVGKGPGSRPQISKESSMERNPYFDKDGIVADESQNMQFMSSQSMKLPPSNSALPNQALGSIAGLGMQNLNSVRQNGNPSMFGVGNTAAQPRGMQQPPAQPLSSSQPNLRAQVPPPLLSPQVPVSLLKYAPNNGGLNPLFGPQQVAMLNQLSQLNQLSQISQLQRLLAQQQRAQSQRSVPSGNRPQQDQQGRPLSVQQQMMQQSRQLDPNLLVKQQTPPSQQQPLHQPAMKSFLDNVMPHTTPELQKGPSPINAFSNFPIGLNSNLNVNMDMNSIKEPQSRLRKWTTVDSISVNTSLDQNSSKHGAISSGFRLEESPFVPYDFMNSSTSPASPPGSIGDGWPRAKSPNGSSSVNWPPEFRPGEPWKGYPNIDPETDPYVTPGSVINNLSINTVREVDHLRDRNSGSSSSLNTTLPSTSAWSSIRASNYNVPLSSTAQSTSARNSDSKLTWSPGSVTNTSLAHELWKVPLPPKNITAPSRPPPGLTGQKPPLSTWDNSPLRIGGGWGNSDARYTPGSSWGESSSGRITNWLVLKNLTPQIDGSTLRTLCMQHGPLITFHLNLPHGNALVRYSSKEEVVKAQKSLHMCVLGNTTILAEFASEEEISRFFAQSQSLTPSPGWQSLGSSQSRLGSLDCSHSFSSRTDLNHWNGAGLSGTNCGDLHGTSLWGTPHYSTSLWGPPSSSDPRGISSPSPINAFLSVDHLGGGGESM
UniProt O43399: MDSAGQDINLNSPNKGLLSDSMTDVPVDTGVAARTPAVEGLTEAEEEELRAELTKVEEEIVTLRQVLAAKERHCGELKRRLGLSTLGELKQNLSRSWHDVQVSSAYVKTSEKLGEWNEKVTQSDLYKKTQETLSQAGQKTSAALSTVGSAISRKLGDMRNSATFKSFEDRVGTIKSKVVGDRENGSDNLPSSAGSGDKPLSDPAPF
UniProt Q9NQ34: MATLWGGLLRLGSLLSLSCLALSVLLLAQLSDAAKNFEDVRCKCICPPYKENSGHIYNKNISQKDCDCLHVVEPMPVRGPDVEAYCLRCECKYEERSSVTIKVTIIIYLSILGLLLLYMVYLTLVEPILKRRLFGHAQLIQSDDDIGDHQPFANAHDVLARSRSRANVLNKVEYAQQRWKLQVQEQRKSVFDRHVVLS
UniProt Q9NV96: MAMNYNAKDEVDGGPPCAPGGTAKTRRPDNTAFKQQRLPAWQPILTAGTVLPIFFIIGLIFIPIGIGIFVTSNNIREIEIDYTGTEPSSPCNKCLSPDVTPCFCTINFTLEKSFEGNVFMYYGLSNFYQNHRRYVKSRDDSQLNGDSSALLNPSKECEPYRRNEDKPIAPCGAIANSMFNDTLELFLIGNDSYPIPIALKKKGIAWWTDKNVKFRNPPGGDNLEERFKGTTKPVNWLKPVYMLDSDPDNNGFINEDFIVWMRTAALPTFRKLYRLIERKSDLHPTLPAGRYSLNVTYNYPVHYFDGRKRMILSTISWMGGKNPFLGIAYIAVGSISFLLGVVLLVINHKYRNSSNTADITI
UniProt Q71RG4: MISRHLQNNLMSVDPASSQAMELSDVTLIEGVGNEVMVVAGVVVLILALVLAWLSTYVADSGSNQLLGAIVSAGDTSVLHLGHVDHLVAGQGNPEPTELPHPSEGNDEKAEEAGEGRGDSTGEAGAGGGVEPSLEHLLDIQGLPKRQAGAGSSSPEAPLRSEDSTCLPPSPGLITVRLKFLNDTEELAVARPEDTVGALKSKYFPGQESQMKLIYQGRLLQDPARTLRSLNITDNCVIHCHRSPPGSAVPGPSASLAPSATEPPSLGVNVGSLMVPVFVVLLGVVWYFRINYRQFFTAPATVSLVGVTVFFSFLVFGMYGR

What was measured:
Test in all cases: log2 fold change, soluble protein after heating vs DMSO (PISA); higher = thermal stabilisation; K562 lysate, 10 uM; active = over 0.2 and 3.5 SD of the protein, either way, in both replicates (recomputed)
[1] = compound: C1=CC=C(C=C1)[C@H](COC2=CC3=C(C=C2)NC(=O)N3)NC(=O)C4=CC=CN(C4=O)CC5=CC(=C(C=C5)F)F
Summary of the method: (§1)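 Following dounce homogenisation of K562 pellets in PBS pH 7.4 with 1 mM MgCl2, crude extract at 1 mg/mL protein was incubated for 30 min with 10 μM compound. Aliquots were then heated for 3 min over 48°C-58°C and pooled, NP-40 was added to 0.5% at 4°C, and soluble protein was recovered as the supernatant at 21,000xg for 90 min. Channel-sum-equalised TMTpro 16plex LC-MS/MS quantified this protein. Each value, from duplicates, is a log-two fold change in thermal stability relative to solvent controls.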

[2] = compound: CC1=C(SC2=C1C(=N[C@H](C3=NN=C(N32)C)CC(=O)N)C4=CC=C(C=C4)Cl)C
Summary of the method: as §1

[3] = compound: CC1=C2C(=CC=C1)N=C(N(C2=O)C3=CC=CC=C3C)CN4C=NC5=C(N=CN=C54)N
Summary of the method: as §1

[4] = compound: Cc1sc2c(c1C)C(c1ccc(Cl)cc1)=N[C@@H](CC(=O)OC(C)(C)C)c1nnc(C)n1-2
Summary of the method: as §1

[5] = compound: c1ccc([C@@H]2C[C@H]2NC2CCNCC2)cc1
Summary of the method: as §1

Target	log2 fold change [1]	log2 fold change [2]	log2 fold change [3]	log2 fold change [4]	log2 fold change [5]
TNFRSF1B (UniProt P20333)	inactive: 0.143	inactive: -0.046	inactive: -0.086	inactive: -0.183	inactive: -0.107
TMEM94 isoform 2 (UniProt Q12767)	inactive: 0.079	inactive: 0.213	inactive: 0.105	inactive: -0.089	
TOR1AIP2 (UniProt Q9H496)	inactive: -0.018	inactive: 0.17	inactive: 0.173	inactive: -0.116	inactive: 0.145
TPX2 (UniProt Q9ULW0)	inactive: 0.04	inactive: -0.006	inactive: 0.008	inactive: -0.003	inactive: 0
TPM1 isoform 4 (UniProt P09493)	inactive: -0.008	inactive: -0.012	inactive: 0	inactive: 0.003	inactive: 0.056
TOMM5 (UniProt Q8N4H5)	inactive: 0.004	inactive: -0.032	inactive: 0	inactive: 0.028	inactive: 0.237
TOP2B isoform 2 (UniProt Q02880)	inactive: 0.007	inactive: 0.013	inactive: -0.025	inactive: -0.007	inactive: 0.132
TNFRSF10A (UniProt O00220)	inactive: 0	inactive: -0.054	inactive: 0.033	inactive: -0.008	inactive: 0.127
TMEM205 (UniProt Q6UW68)	inactive: -0.162	inactive: -0.112	inactive: 0.097	inactive: -0.124	
TMEM192 (UniProt Q8IY95)	inactive: 0.005	inactive: -0.056	inactive: -0.026	inactive: -0.013	inactive: 0.007
TMEM87B (UniProt Q96K49)	active: 0.529	inactive: 0.02	inactive: 0.075	inactive: 0.001	inactive: 0.038
TMEM219 (UniProt Q86XT9)	inactive: -0.037	inactive: 0.001	inactive: -0.003	inactive: -0.016	inactive: 0.042
TMPO (UniProt P42166)	inactive: -0.013	inactive: 0.015	inactive: 0.015	inactive: 0.011	inactive: 0.059
TMEM246 (UniProt Q9BRR3)	inactive: -0.184	inactive: 0.009			
TPM4 isoform 2 (UniProt P67936)	inactive: -0.059	inactive: -0.012	inactive: 0.02	inactive: 0.053	inactive: 0.1
TNFRSF8 (UniProt P28908)	inactive: -0.003	inactive: -0.086	inactive: 0.032	inactive: -0.038	inactive: 0.003
TMEM273 isoform 2 (UniProt Q5T292)	inactive: 0.083	inactive: 0.082			
TMEM63B (UniProt Q5T3F8)	inactive: 0.064	inactive: -0.07	inactive: -0.075	inactive: -0.029	inactive: -0.033
TOLLIP (UniProt Q9H0E2)	inactive: 0.071	inactive: -0.063	inactive: -0.023	inactive: -0.003	inactive: -0.006
TNFAIP2 (UniProt Q03169)	inactive: -0.034	inactive: 0.024	inactive: 0.027	inactive: 0.002	inactive: -0.059
TOPAZ1 (UniProt Q8N9V7)	inactive: -0.068	inactive: 0.028	inactive: -0.02		
TNPO3 (UniProt Q9Y5L0)	inactive: -0.024	inactive: 0.07	inactive: -0.003	inactive: 0.009	inactive: -0.029
TOP1 (UniProt P11387)	inactive: 0	inactive: 0.004	inactive: 0.017	inactive: -0.008	inactive: 0.076
TMX4 (UniProt Q9H1E5)	inactive: 0.06	inactive: 0.003	inactive: -0.026	inactive: 0.021	inactive: 0.09
TMF1 isoform 2 (UniProt P82094)	inactive: 0.076	inactive: 0.006	inactive: 0.043	inactive: -0.05	inactive: -0.034
TOR1AIP1 (UniProt Q5JTV8)	inactive: 0.113	inactive: 0.109	inactive: -0.319	inactive: -0.132	
TPRKB (UniProt Q9Y3C4)	inactive: 0.002	inactive: 0.001	inactive: -0.023	inactive: -0.033	inactive: -0.011

Part of the list above, with each value named:
TNFRSF1B (UniProt P20333)
  log2 fold change [1]: inactive: 0.143
  log2 fold change [2]: inactive: -0.046
  log2 fold change [3]: inactive: -0.086
  log2 fold change [4]: inactive: -0.183
  log2 fold change [5]: inactive: -0.107
TMEM94 isoform 2 (UniProt Q12767)
  log2 fold change [1]: inactive: 0.079
  log2 fold change [2]: inactive: 0.213
  log2 fold change [3]: inactive: 0.105
  log2 fold change [4]: inactive: -0.089

Remaining list, next part

Target	log2 fold change [1]	log2 fold change [2]	log2 fold change [3]	log2 fold change [4]	log2 fold change [5]
TMPO isoform 2 (UniProt P42167)	inactive: 0.11	inactive: 0.088	inactive: 0.033	inactive: -0.069	
TOR1A (UniProt O14656)	inactive: 0.001	inactive: 0.034	inactive: 0.052	inactive: 0.029	inactive: -0.031
TNIK (UniProt C9J338)	inactive: -0.028	inactive: 0.067	inactive: 0.135	inactive: -0.225	inactive: -0.375
TOM1L1 (UniProt O75674)	inactive: -0.013	inactive: 0.029	inactive: -0.005	inactive: 0.053	inactive: -0.034
TNFRSF10B (UniProt O14763)	inactive: 0	inactive: 0.095	inactive: 0.04	inactive: -0.049	inactive: 0.029
TPD52L1 (UniProt Q16890)	inactive: 0.062	inactive: 0.032	inactive: -0.019	inactive: 0.024	inactive: -0.021
TPM3 isoform 2 (UniProt P06753)	inactive: -0.02	inactive: 0.01	inactive: -0.025	inactive: -0.009	inactive: 0.056
TMEM69 (UniProt Q5SWH9)	inactive: 0.046	inactive: -0.062	inactive: -0.031	inactive: -0.213	inactive: -0.099
TPST2 (UniProt O60704)	inactive: -0.034	inactive: 0.021	inactive: -0.028	inactive: -0.054	inactive: -0.384
TMEM65 (UniProt Q6PI78)	inactive: -0.06	inactive: -0.041	inactive: 0.134	inactive: -0.129	inactive: 0.051
TNRC6A (UniProt Q8NDV7)	inactive: 0.045	inactive: -0.006	inactive: 0.069	inactive: -0.008	inactive: 0.062
TPD52L2 isoform 7 (UniProt O43399)	inactive: 0.046	inactive: -0.036	inactive: -0.024	inactive: 0.024	inactive: -0.058
TMEM68 (UniProt Q96MH6)	inactive: 0.008	inactive: -0.028	inactive: 0.013	inactive: 0.029	inactive: -0.039
TNIP1 (UniProt Q15025)	inactive: -0.044	inactive: 0.036	inactive: -0.067	inactive: -0.019	inactive: -0.066
TMEM33 (UniProt P57088)	inactive: -0.002	inactive: 0.023	inactive: -0.015	inactive: -0.02	inactive: 0.034
TOMM20 (UniProt Q15388)	inactive: 0.05	inactive: 0.015	inactive: 0.036	inactive: -0.027	inactive: -0.024
TOR1AIP1 isoform 3 (UniProt Q5JTV8)	inactive: 0.011	inactive: 0.022	inactive: 0.01	inactive: -0.011	inactive: -0.044
TOE1 (UniProt Q96GM8)	inactive: 0.063	inactive: -0.01	inactive: 0.03	inactive: 0.032	inactive: 0.01
TOP3B (UniProt O95985)	inactive: -0.013	inactive: 0.014	inactive: 0.008	inactive: -0.006	inactive: 0.003
TPM1 (UniProt H7BYY1)	inactive: -0.028	inactive: 0.017	inactive: 0.059	inactive: 0.031	inactive: 0.023
TRA2B (UniProt P62995)	inactive: 0.027	inactive: -0.029	inactive: 0.03	inactive: -0.026	inactive: 0.002
TMEM9B (UniProt Q9NQ34)	inactive: -0.031	inactive: -0.007	inactive: 0.051	inactive: 0.052	inactive: 0.046
TPP2 (UniProt Q5VZU9)	inactive: 0.004	inactive: -0.117	inactive: 0.001	inactive: 0.034	inactive: -0.08
TMEM30A (UniProt Q9NV96)	inactive: 0.047	inactive: -0.013	inactive: -0.007	inactive: -0.014	inactive: -0.008
TMUB2 (UniProt Q71RG4)	inactive: 0.066	inactive: -0.027	inactive: -0.009	inactive: -0.04	inactive: 0.009
TOMM34 (UniProt Q15785)	inactive: -0.02	inactive: -0.001	inactive: 0.001	inactive: -0.003	inactive: 0.029
TMEM38B (UniProt Q9NVV0)	inactive: 0.003	inactive: -0.045	inactive: -0.029	inactive: -0.082	inactive: -0.16

Limited to log2 fold change [4], for some of the entries so far:
Target,log2 fold change [4]
TPP2 (UniProt Q5VZU9),inactive: 0.034
TMEM30A (UniProt Q9NV96),inactive: -0.014
TMUB2 (UniProt Q71RG4),inactive: -0.04
TOMM34 (UniProt Q15785),inactive: -0.003
